# PubChem BioAssay AID1259425, University of Nebraska Medical Center, 2018
# Test: 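Compare each knockdown with KSR1 silencing using changes in marker transcripts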 (primary screen)
# Cell system: HCT116 human colon cancer cells
# Reagent: siRNA pool against human genes, 50 nM siRNA
# Detection: 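mRNA of six signature genes measured together by branched-DNA assay after 50 nM siRNA pool, blank removed, divided by geometric mean of two housekeeping genes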
# Scale: BNIP3L mRNA: higher = more BNIP3L transcript after knockdown; NDRG1 mRNA: higher = more NDRG1 transcript after knockdown; BNIP3 mRNA: higher = more BNIP3 transcript after knockdown; ALDOC mRNA: higher = more ALDOC transcript after knockdown; ACSL5 mRNA: higher = more ACSL5 transcript after knockdown
# In all, the deposit lists about 14,000 reagents; below is a part drawn at random. Reagent sequences are not shown. Not stated in the record: the time to read-out.
gene,"BNIP3L mRNA, set 1","NDRG1 mRNA, set 1","BNIP3 mRNA, set 1","ALDOC mRNA, set 1","ACSL5 mRNA, set 1"
AMN (amnion associated transmembrane protein),0.13,0.176,0.348,0.0171,0.118
"ADH1A (alcohol dehydrogenase 1A (class I), alpha polypeptide)",0.0762,0.163,0.144,0.0194,0.149
MAGEA11 (MAGE family member A11),0.124,0.101,0.193,0.00964,0.136
STK32B (serine/threonine kinase 32B),0.098,0.132,0.317,0.00692,0.327
ADCK5 (aarF domain containing kinase 5),0.273,0.339,0.438,0.0177,0.37
ARMCX6 (armadillo repeat containing X-linked 6),0.0813,0.111,0.287,0.0227,0.189
RPS6KC1 (ribosomal protein S6 kinase C1),0.221,0.327,1.17,0.0221,0.17
"NAA10 (N-alpha-acetyltransferase 10, NatA catalytic subunit)",0.228,0.507,0.432,0.0423,0.0597
MTMR2 (myotubularin related protein 2),0.114,0.119,0.33,0.0286,0.218
LRRC49 (leucine rich repeat containing 49),0.114,0.227,0.43,0.0317,0.166
CRTAC1 (cartilage acidic protein 1),0.127,0.214,0.307,0.0849,0.201
CLPTM1 (CLPTM1 regulator of GABA type A receptor forward trafficking),0.109,0.0832,0.292,0.0173,0.0997
UBE2R2 (ubiquitin conjugating enzyme E2 R2),0.0478,0.0849,0.142,0.0304,0.124
NUP98 (nucleoporin 98 and 96 precursor),0.138,0.143,0.185,0.069,0.0892
F11R (F11 receptor),0.199,0.565,0.35,0.0529,0.182
NMNAT2 (nicotinamide nucleotide adenylyltransferase 2),0.0601,0.109,0.307,0.00624,0.16
CFAP68 (cilia and flagella associated protein 68),0.118,0.0378,0.315,0.0131,0.127
NXN (nucleoredoxin),0.0716,0.13,0.417,0.0172,0.191
AHDC1 (AT-hook DNA binding motif containing 1),0.145,0.189,0.326,0.0194,0.187
PCDH11X (protocadherin 11 X-linked),0.101,0.242,0.307,0.0079,0.226
ABCC6 (ATP binding cassette subfamily C member 6),0.0705,0.231,0.37,0.0198,0.144

Sorted by “BNIP3 mRNA, set 1” (low to high): some entries from above.
gene,"BNIP3L mRNA, set 1","NDRG1 mRNA, set 1","BNIP3 mRNA, set 1","ALDOC mRNA, set 1","ACSL5 mRNA, set 1"
CFAP68 (cilia and flagella associated protein 68),0.118,0.0378,0.315,0.0131,0.127
AHDC1 (AT-hook DNA binding motif containing 1),0.145,0.189,0.326,0.0194,0.187
NXN (nucleoredoxin),0.0716,0.13,0.417,0.0172,0.191

Next records follow:
gene,"BNIP3L mRNA, set 1","NDRG1 mRNA, set 1","BNIP3 mRNA, set 1","ALDOC mRNA, set 1","ACSL5 mRNA, set 1"
CSNK1D (casein kinase 1 delta),0.102,0.103,0.227,0.00426,0.408
GNB3 (G protein subunit beta 3),0.105,0.299,0.453,0.104,0.3
DNASE1L2 (deoxyribonuclease 1 like 2),0.0492,0.187,0.272,0.0172,0.118
CRHBP (corticotropin releasing hormone binding protein),0.0837,0.0959,0.399,0.0163,0.0798
COPB2 (coat protein complex I subunit beta 2),0.454,0.817,0.874,0.0185,0.198
GPBAR1 (G protein-coupled bile acid receptor 1),0.189,0.282,0.392,0.0647,0.158
NHLH2 (nescient helix-loop-helix 2),0.166,0.495,0.366,0.0203,0.193
DDHD1 (DDHD domain containing 1),0.2,0.193,0.397,0.0742,0.282
CACNA1G (calcium voltage-gated channel subunit alpha1 G),0.109,0.332,0.384,0.00665,0.128
MYLIP (myosin regulatory light chain interacting protein),0.134,0.141,0.386,0.0343,0.166
FBXO6 (F-box protein 6),0.126,0.27,0.174,0.0494,0.222
CLCNKA (chloride voltage-gated channel Ka),0.0587,0.0834,0.272,0.0118,0.0595
KIF22 (kinesin family member 22),0.065,0.0956,0.169,0.032,0.268
